Our source for the binding values is PMC9346556.

The target in test [1] is T1, PbLRR1-mCherry (endogenous PbLRR1 fused to a C-terminal mCherry tag) (P. berghei).
T1 sequence: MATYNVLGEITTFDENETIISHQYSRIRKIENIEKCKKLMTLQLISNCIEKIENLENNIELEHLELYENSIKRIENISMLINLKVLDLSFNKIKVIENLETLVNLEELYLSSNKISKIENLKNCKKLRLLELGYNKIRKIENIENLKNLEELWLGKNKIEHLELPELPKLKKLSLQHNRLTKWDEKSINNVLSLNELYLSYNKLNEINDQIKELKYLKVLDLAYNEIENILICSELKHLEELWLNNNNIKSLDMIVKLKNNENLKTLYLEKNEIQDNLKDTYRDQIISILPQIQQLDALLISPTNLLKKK
Nature of the test: affinity purification with mass spectrometry; RFP-Trap beads on soluble extracts of zygotes of the PbLRR1-mCherry line, parental wild type as control; three biological replicates; t-test, FDR < 0.01, S0 = 1.

Test [2] has the same target. The test is described as follows: affinity purification with mass spectrometry; RFP-Trap beads on soluble extracts of activated gametocytes of the PbLRR1-mCherry line, parental wild type as control; three biological replicates; t-test, FDR < 0.01, S0 = 1.

Results are given in words; binding and its absence hold for the method and conditions named. Binding seen in cells or lysates may run through a third protein. Here binding means that the protein was enriched with, or labelled near, the bait; the list need not be complete. Tags and fused reporters may be left off the sequences shown.

B1: PBANKA_1429100 (protein, UniProt A0A509AUG6 1-112)
chain: MNCEKGINIKAEKINGLYAYDEDDVFSNSTLSDVEKSFKFWDGVNNCDIFNIYKEFEDIDDEEETQDKKEKFVTPKLQHSIETNTTGLDNEATAESSNVKTEKNNQSNPELN
Turning to B1, in test [1], the binding entry is given as “binds”.

B2: PBANKA_1420100 (protein, UniProt A0A509AQ80 1-993)
chain: MDRIKTEVAFLIYNLEFGKLKNNHQSYVINELNRKINKYTSFILDSSYKHVNNFSYSTNIFHYFYKVTEYYILKYFNSIIVDSIFYFKCINDLKNKSHCGAQNDESKLYKCIYKEKNEKMLENWNNNDSNYYTFDYQVLTNFIQNLKKLYEKNNCVASNAGGKNITKAKDSEKTTRQKNDDNNATKPEKCNNKNEDRQNNENEIKNASESFKFGKTFIYAICEINNSLYNKKNRMICITKIFRKIVNKKKMRKYICENDKMAKKMYLKFILNLSLGIFIYLYMYRYIKKKYKNIDFFIFLNNLKNIRQIYSNNTSYFEKQQIISFIKYIKFINIQMFQYAYISFFVNIYKYINLIHNTTLVTLYYYFKKINKKHKWKIKLIKKKDGKNSGHQNNDPYEYFIIEHDGKQKCNESYCHDNKNVCDKEFVYNQNISNEIGQIEKEKGVKNENVGKNVTKNLEFPQSDNANLNTKNINTKLINDINNKRAIEIGLSGSYDYNNNKQCNIGFNWVEIKKESILSMKNNINGINEIIFDNYIYVFIFYKYIRNIKKSMKYNITKIQSNIKKMIHLFINICKTNNDENNKMEQKMPLSMNTEDTKNISNNILGDQECNNNYINDSTQFLIYFKYIELCKYYKSCIKINYEIIKSVHTFHILLTHFFKYFPVLNFKKGNCIIYNYYDKSYIYKEQASNENIDTKKAGKVNKECFFDIFKNVKDYEIDFLYFNEYQKKKDDVDETLQSIEENNQVESFSEVFHIDDNTNFDSTNLSQNNFTKENINDHENTDNNYSNGYIEGLKKIFLYCINNNLNDFLISVNMEENFQIKRDTSENEKNISIINQNKGDELVKKCRSDSILEILKTNKALYSKILEIIEGFSKGMSNIIQNYEYDLNRYSKKVLDIYDNNVFDIHYKISNQNTIESEEEVKNKKLLEVKIFLDYKKLYNKKTVETQTPVSFFKNDKAIQIAKDTETITISEQFIQTRKNNNPIFYLSDIYS
Take B2: the binding result in test [1] and in test [2] was “binds” in each case.

B3: PBANKA_1142800 (protein, UniProt A0A509AL90 1-602)
chain: MEDKEINNENNNKKDVNKDDDNMQKEDEITKKKTENSEENDLSLAKNVSLGKHLLIGNAVKKGISVSVRGRASNGGLNSKQAGSAWKKKDDKTGDSQGEEKEKKIDDESFPDLLESTEKIKAELVKEKDKKKKQIKDLKKGEENMMNNTFESLDKSKLSDGIFDKQKKMGMNMFDGLKKNDNNTKRWNDYQTNDMDKNSINNMNDNETITGYILPGFKGKHMVGFKCFLKRGMQNPSPSPPSLVYEEVSYFSNIEKSGMQKKFMKLNNQSGQQMNHQMNQQMNQQMNQQMNQQMNQQMNQQMNQQMNQQMNQQMNSSLNNPTINNMMNMHMGYPMNMQMNSPQQRNNHNSVLNNNEEESLNRNNNNINGKFLNEPQHNNQNRFNNNMFKNNNNFNRNSNFFQNKGDDNNAGNGKMMNSGGGMQGNNLNYMKRNDKKEDRGFKKKDIDAEGNWRNAGISNRNDTNDKNNINLTNTNNNGNNRMMRNFGNGNLPGNNKNMFNKNNEDQKNKMYKNNMGNQMANNIGGGHDSFNYSSHNFSNNNNNNNINNENMNDNPNNNKFDYNKNSFNNLNANNKNMNSLDSRKDRMRDVRNINGKNKVNDG
With B3, the binding entry in test [2] is on record as “binds”.
